Only a part is listed here, and it is no random draw. At the low end of the ranking, values are background and their order means little.
Target: ETV7 (UniProt Q9Y603)
Experiment: DAPPL (digital affinity profiling via proximity ligation, sequencing)
Details: 10 mM Tris-HCl pH 7.5, 50 mM NaCl, 1 mM DTT, 4% glycerol, room temperature, 30 min; GST-TFs on glutathione beads, 16-mer random dsDNA library, 0.1% …; high values mean tight binding; double strand, one strand shown; scale: fold enrichment (6-mer frequency, TF over GST control)

Amino acid sequences for entries named in this document (tags omitted). A change or cut given only in a name is not applied to a line headed by its entry.
UniProt Q9Y603: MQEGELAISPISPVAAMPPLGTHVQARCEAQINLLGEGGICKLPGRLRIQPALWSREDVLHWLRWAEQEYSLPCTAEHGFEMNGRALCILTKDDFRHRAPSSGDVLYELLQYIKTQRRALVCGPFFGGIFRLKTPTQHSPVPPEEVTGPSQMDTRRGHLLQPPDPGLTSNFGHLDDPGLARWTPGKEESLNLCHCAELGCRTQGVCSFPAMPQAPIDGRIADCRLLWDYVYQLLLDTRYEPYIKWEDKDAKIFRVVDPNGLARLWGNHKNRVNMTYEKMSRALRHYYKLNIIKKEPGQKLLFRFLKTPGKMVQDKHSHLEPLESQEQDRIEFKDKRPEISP

Sequence | binding signal
TTTTAT | 1.34
GGCCTT | 1.34
AATCCA | 1.14
CCGCCG | 1.2
CTCCAC | 1.39
GCCGCT | 1.05
ACGCGG | 0.925
TAATAC | 1.11
ATGGCA | 1.24
AAACAG | 1.04
TGATTA | 1.05
CTCGAC | 1.37
CGGAAC | 0.995
TTATCT | 1.15
CAACTG | 1.06
AGTAGC | 0.968
CCCTAT | 1.3
CCAAAC | 0.99
ATCACA | 0.988
CTAACA | 1.16

Random excerpt: 3 records from the list.
Sequence | binding signal
CCAAAC | 0.99
CGGAAC | 0.995
CTCGAC | 1.37

Next records follow.

Sequence | binding signal
TGGTCA | 0.989
TCCACG | 1.06
TACCCC | 1.1
GTCCCC | 1.27
GTATCA | 1.04
CACCTG | 0.998
AGCAAT | 1.25
AACTCC | 1.31
GTTTAT | 1.19
TTTAAC | 1.07
AGGTAA | 0.959
AACTCA | 1.2
GTTATT | 1.29
CTACAG | 0.927
TTGTGT | 1.34
CATAGC | 0.97
ATACTT | 1.69
ATACGG | 1
ATCCAC | 1.18
GCCCTC | 1.22
